{
  "sequences": {"note": "Amino acid sequences for entries named in this document (tags omitted). A change or cut given only in a name is not applied to a line headed by its entry. Residues count along the entry.", "UniProt P08581": "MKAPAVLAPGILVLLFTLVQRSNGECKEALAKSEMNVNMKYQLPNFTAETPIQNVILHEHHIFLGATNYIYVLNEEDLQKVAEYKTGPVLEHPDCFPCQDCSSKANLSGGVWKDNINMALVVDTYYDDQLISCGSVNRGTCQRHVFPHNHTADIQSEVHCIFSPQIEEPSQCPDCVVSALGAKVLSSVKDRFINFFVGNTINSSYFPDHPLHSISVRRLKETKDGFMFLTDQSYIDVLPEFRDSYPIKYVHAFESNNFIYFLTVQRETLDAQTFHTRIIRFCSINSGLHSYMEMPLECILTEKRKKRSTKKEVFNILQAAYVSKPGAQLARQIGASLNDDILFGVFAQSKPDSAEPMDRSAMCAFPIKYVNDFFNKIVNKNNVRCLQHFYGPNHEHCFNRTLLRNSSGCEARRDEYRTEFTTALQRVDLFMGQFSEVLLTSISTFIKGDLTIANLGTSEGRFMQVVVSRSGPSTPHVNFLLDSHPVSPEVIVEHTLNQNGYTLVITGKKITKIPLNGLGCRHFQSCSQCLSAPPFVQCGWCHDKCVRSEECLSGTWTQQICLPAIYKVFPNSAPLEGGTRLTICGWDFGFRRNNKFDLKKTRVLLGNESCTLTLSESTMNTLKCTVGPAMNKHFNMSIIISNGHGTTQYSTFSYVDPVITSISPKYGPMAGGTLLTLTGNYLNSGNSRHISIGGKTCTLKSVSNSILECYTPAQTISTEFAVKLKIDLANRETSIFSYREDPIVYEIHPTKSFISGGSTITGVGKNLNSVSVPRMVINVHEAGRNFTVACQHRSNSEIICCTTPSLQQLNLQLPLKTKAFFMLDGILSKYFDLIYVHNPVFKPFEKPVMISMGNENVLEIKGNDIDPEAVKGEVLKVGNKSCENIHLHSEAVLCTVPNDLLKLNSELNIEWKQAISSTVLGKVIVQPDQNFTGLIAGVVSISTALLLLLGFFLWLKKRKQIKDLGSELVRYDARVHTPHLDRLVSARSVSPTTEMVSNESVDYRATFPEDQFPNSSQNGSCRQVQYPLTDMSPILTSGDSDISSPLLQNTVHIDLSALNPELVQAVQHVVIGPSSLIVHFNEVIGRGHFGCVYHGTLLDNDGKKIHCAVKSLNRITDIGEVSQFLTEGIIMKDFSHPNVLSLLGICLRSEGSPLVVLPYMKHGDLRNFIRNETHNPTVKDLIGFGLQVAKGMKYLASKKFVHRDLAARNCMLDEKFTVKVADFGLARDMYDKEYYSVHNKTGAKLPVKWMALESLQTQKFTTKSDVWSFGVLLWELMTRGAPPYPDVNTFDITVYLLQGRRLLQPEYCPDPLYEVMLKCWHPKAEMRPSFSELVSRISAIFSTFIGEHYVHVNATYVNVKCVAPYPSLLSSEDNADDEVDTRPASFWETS", "c‐Met (endogenous, in tumor cell lines) (human (endogenous in U87MG, SW480, HCT116))": "residues 25-1390 of P08581", "purified recombinant extracellular domain of c‐Met (from Met1 to Thr932), c‐Met‐his": "residues 25-932 of P08581", "UniProt P14210, residues 32-728": "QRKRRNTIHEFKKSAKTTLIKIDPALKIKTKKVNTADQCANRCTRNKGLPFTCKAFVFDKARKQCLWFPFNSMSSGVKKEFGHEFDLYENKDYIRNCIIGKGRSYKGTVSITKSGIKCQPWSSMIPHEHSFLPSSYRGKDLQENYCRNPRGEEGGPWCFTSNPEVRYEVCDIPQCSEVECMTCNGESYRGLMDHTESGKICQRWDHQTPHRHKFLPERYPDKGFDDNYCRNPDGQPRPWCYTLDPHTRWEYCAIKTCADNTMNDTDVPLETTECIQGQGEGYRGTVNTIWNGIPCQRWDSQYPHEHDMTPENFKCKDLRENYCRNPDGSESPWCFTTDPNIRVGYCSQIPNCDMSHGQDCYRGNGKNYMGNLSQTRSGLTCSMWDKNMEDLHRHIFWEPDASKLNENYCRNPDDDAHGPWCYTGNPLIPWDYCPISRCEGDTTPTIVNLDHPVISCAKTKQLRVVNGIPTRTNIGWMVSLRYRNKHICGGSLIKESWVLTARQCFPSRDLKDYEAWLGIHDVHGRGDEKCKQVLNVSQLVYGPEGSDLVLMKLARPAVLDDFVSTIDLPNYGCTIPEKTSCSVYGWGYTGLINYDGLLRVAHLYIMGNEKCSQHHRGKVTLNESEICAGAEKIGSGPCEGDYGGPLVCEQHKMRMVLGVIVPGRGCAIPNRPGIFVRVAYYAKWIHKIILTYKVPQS"},
  "source": "paper PMC12371199",
  "about": "“Identification of c‐Met on Tumor Cells as a Novel Receptor for B7‐H3 Entails Implications for Cancer Cell Stemness and Targeted Therapy” (MedComm, 2025)",
  "key": {"[1]": {"target": "purified recombinant extracellular domain of c‐Met (from Met1 to Thr932), c‐Met‐his (human) (UniProt P08581)", "assay": "ELISA; plates pre‐coated with c‐Met (5 or 10 µg/mL) or PD‐1 (10 µg/mL); B7‐H3 (5 µg/mL or gradient) or HGF (1 µg/mL) in solution; both purified"}, "[2]": {"target": "T1, HA‐strep tagged B7‐H3 (human) (UniProt Q5ZPR3)", "T1 sequence": "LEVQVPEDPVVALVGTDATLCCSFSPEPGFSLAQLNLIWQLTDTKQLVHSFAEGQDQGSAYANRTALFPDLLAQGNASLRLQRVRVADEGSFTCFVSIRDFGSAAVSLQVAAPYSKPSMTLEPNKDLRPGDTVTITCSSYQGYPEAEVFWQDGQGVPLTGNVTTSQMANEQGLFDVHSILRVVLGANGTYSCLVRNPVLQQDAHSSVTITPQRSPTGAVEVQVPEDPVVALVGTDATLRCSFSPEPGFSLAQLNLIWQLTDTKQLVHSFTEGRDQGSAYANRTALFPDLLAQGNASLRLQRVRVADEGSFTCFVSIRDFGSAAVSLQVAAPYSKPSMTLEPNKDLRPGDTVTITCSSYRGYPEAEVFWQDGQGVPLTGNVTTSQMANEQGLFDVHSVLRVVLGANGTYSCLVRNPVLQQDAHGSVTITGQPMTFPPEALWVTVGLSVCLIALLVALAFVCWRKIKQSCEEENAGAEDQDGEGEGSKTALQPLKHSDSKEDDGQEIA", "assay": "co-IP; lysates of U87MG or SW480 cells overexpressing HA‐strep tagged B7‐H3; immunoprecipitation with anti‐HA antibody, blot with anti‐c‐Met antibody"}, "[3]": {"target": "c‐Met (endogenous, in tumor cell lines) (human (endogenous in U87MG, SW480, HCT116)) (UniProt P08581)", "assay": "co-IP; cell lysate (SW480 overexpressing HA‐tagged B7‐H3) immunoprecipitated with anti‐c‐Met antibody, blot for HA‐tagged B7‐H3; IgG control"}, "[4]": {"target": "c‐Met (endogenous, in tumor cell lines) (human (endogenous in U87MG, SW480, HCT116)) (UniProt P08581)", "assay": "proximity ligation; Duolink in situ PLA in HCT116 and U87MG cells with B7‐H3 and c‐Met antibodies; single antibodies as controls"}},
  "note": "No constants are given. Whether binding was seen depends on the method and setting. For some of these results: In cells and extracts the contact can be indirect. Some results given as binding are weak or reduced against the parent protein; the word gives no strength. For some of these results: Sequences can lack the tags named with a protein.",
  "data": [
    {"molecule": "HGF (from UniProt P14210 32-728) (ligand)", "values": [
      {"measurement": "binding", "setting": "[1]", "value": "binds"}
    ]},
    {"molecule": "c‐Met (endogenous, in tumor cell lines) (from UniProt P08581 25-1390) (receptor)", "values": [
      {"measurement": "binding", "setting": "[2]", "value": "binds"}
    ]},
    {"molecule": "HA‐strep tagged B7‐H3 (protein, UniProt Q5ZPR3 29-534) LEVQVPEDPVVALVGTDATLCCSFSPEPGFSLAQLNLIWQLTDTKQLVHSFAEGQDQGSAYANRTALFPDLLAQGNASLRLQRVRVADEGSFTCFVSIRDFGSAAVSLQVAAPYSKPSMTLEPNKDLRPGDTVTITCSSYQGYPEAEVFWQDGQGVPLTGNVTTSQMANEQGLFDVHSILRVVLGANGTYSCLVRNPVLQQDAHSSVTITPQRSPTGAVEVQVPEDPVVALVGTDATLRCSFSPEPGFSLAQLNLIWQLTDTKQLVHSFTEGRDQGSAYANRTALFPDLLAQGNASLRLQRVRVADEGSFTCFVSIRDFGSAAVSLQVAAPYSKPSMTLEPNKDLRPGDTVTITCSSYRGYPEAEVFWQDGQGVPLTGNVTTSQMANEQGLFDVHSVLRVVLGANGTYSCLVRNPVLQQDAHGSVTITGQPMTFPPEALWVTVGLSVCLIALLVALAFVCWRKIKQSCEEENAGAEDQDGEGEGSKTALQPLKHSDSKEDDGQEIA", "values": [
      {"measurement": "binding", "setting": "[3]", "value": "binds"}
    ]},
    {"molecule": "B7‐H3 in HCT116 and U87MG cells (proximity ligation assay) (protein, UniProt Q5ZPR3 29-534) LEVQVPEDPVVALVGTDATLCCSFSPEPGFSLAQLNLIWQLTDTKQLVHSFAEGQDQGSAYANRTALFPDLLAQGNASLRLQRVRVADEGSFTCFVSIRDFGSAAVSLQVAAPYSKPSMTLEPNKDLRPGDTVTITCSSYQGYPEAEVFWQDGQGVPLTGNVTTSQMANEQGLFDVHSILRVVLGANGTYSCLVRNPVLQQDAHSSVTITPQRSPTGAVEVQVPEDPVVALVGTDATLRCSFSPEPGFSLAQLNLIWQLTDTKQLVHSFTEGRDQGSAYANRTALFPDLLAQGNASLRLQRVRVADEGSFTCFVSIRDFGSAAVSLQVAAPYSKPSMTLEPNKDLRPGDTVTITCSSYRGYPEAEVFWQDGQGVPLTGNVTTSQMANEQGLFDVHSVLRVVLGANGTYSCLVRNPVLQQDAHGSVTITGQPMTFPPEALWVTVGLSVCLIALLVALAFVCWRKIKQSCEEENAGAEDQDGEGEGSKTALQPLKHSDSKEDDGQEIA", "values": [
      {"measurement": "binding", "setting": "[4]", "value": "binds"}
    ]}
  ]
}
